Results are given in words; binding and its absence hold for the method and conditions named. Binding can be weak; no strength is given.

This assay addresses N-terminal half of HLH-2 (C. elegans). Put plainly: yeast two-hybrid.

B1: DPY-22 PQ-rich domain (protein, C. elegans, UniProt Q20497 2142-3498, looked up)
chain: QTTRLDKVAKNVQNVLRSNMHHTHVLEFNRPQLLMSDNMFDDIFLAPPDIEITKIIEQPVPVIDEEEAKKRAEEEKEAAEKKEESKNAEDEKNKNNAENKKDTKEGEKGKSKDKEKDGEKEKCKDASKKDDVTSEKNELEKRASDAAAATNAPETNKDMDTSTPKPAPVTRSPATRGRGGGRKRNSGARGGGPRAKRANSRADTAQAAAATTQWNAPIANTSNPAAGGNFHAAMRGNQPPMSNGSSDETKVHIRNLLNRKKEEKRNSLADASAAAAAANSNAMGNTSSMPPSGPPMPMGSSMQSAGATQQLQGMQKHQMGGSMSGMNQNMGGMNQSMSHQAPPPYSSTNEMNRPLMNQYGGPHFAAPNPGPLNRSSGPVSSETRQQIMEQQMREKLAAHHQLVEQQKQRDAREREAREREAREHQERMQREAYMKEQQLLERKRAIEENNRIMEEQQREREMEAARKEAARRAAEEAYAAEQQRLELLRRQEEERLRKEAEERMRIQRENEERVRQEQMRLEAEERERIRRAEEERIQKELEDKVRREKEEAARQEKERQEQEARMREAREAELSRQRMEQQRRSQQNPYMNQQGQYSQQPPPSYQQSSYPNNYQPGQQGNQPPNYQQPSHQSMQQGHQAGYQQTSNQMQMNMQQQQNRQQGGPQQSFSGPGGINQPSQPGYSGYNQQGGQGQQGQMQQQRNPFGNQQDMQQPGAAKLMHAKPNEAHAQQYQHTQNQLSLAQKEKEKQYFQAKNLQASQANAQQQQQRFGDVVAGNVAGYGRPYGQQQLGASDQMGTSQLPGASTSRMNQGSSNPQGGMQSYQQQQPVLGQPGPIQTGQSTQQQIPAQSQQQYNSGRPQMHTTPTKNDMSARAPSGAMGQIANRMGHGTNPQGYGSTGQNVPGGYQQGQQQSGQGSYPQAQQQQPNQYSGSNQQVGQQAQQQQQQPLNQNVSQSQSAAQFGRPSQDSAYQQSGYNQTGNQSYQRPDQQQQGAQQNQWSGSNQAQNQLRSQQQAQQPLQQPQQSQQFQQPAQQAKNPMAQSAQYGGFGGQQQGYDQQQQGQIAPQQAQNPQASQSYGQQQTQQNRYGMGSSGYTANSGGSSNILNQSMEESGLNQGFSGASSNASSQQGGSSQMQQSGYGMPGNQMQMQQNQKQQVQRGMPTGMGQTNMGQSGMGQSGMGQTGMSRSGLGGGIGQQGQQSQQPQQPQVSQQQNQRGMNPGAQLPPYSTGQQQHQPQQSQISQQQQQQDQYRRMQAAQMQQQPTAQGQQNRMGMPSQQQSGAAYSNQMQFQGVRQGQQGMGGMGGSGQQQPQTQPHGSNQYYQQQQDQRMQQQPQQPGQQQQHGYGMGQYPNQQPPNQY
With B1, the binding entry is recorded as “binds”.

The record behind these values is US20200123499A1 (MIT, published 2020).
